Test results reported in ChEMBL document CHEMBL1687827, “Profiling the Aspergillus fumigatus proteome in response to caspofungin” (2011).
The source gives many values for each of these; only a part stands here.

How the values were obtained:
Format in all cases: functional
[1] = system: Aspergillus fumigatus; assay: Induction of change in Mn superoxide dismutase MnSOD protein level in iTRAQ-116 labelled secreted fraction of drug-susceptible Aspergillus fumigatus KU80 delta-akuB at 0.12 ug/ml after 48 hrs in YPD medium by MS (MS/MS) analysis relative to control
[2] = system: Aspergillus fumigatus; assay: Induction of change in cell wall protein PhiA protein level in iTRAQ-116 labelled secreted fraction of drug-susceptible Aspergillus fumigatus KU80 delta-akuB at 0.12 ug/ml after 48 hrs in YPD medium by MS (MS/MS) analysis relative to control
[3] = system: Aspergillus fumigatus; assay: Induction of change in ribosomal protein L35, putative gene expression in drug-susceptible Aspergillus fumigatus KU80 delta-akuB at 0.12 ug/ml after 24 hrs in YPD medium by microarray analysis relative to control
[4] = system: Aspergillus fumigatus; assay: Induction of change in ribosomal protein S23 gene expression in drug-susceptible Aspergillus fumigatus KU80 delta-akuB at 0.12 ug/ml after 24 hrs in YPD medium by microarray analysis relative to control
[5] = system: Aspergillus fumigatus; assay: Induction of change in outer mitochondrial membrane protein porin gene expression in drug-susceptible Aspergillus fumigatus KU80 delta-akuB at 0.12 ug/ml after 48 hrs in YPD medium by microarray analysis relative to control
[6] = system: Aspergillus fumigatus; assay: Induction of change in fructose-bisphosphate aldolase, class II gene expression in drug-susceptible Aspergillus fumigatus KU80 delta-akuB at 0.12 ug/ml after 48 hrs in YPD medium by microarray analysis relative to control
[7] = system: Aspergillus fumigatus; assay: Induction of change in cytosolic large ribosomal subunit protein L30 protein level in iTRAQ114 labelled secreted fraction of drug-susceptible Aspergillus fumigatus KU80 delta-akuB at 0.12 ug/ml after 24 hrs in YPD medium by MS (MS/MS) analysis relative to control
[8] = system: Aspergillus fumigatus; assay: Induction of change in ribosomal protein L26 protein level in iTRAQ-116 labelled secreted fraction of drug-susceptible Aspergillus fumigatus KU80 delta-akuB at 0.12 ug/ml after 48 hrs in YPD medium by MS (MS/MS) analysis relative to control
[9] = system: Aspergillus fumigatus; assay: Induction of change in extracellular conserved serine-rich protein level in iTRAQ-116 labelled secreted fraction of drug-susceptible Aspergillus fumigatus KU80 delta-akuB at 0.12 ug/ml after 48 hrs in YPD medium by MS (MS/MS) analysis relative to control
[10] = system: Aspergillus fumigatus; assay: Induction of change in integral membrane gene expression in drug-susceptible Aspergillus fumigatus KU80 delta-akuB at 0.12 ug/ml after 24 hrs in YPD medium by microarray analysis relative to control
[11] = system: Aspergillus fumigatus; assay: Induction of change in NAD-dependent formate dehydrogenase protein level in iTRAQ-116 labelled secreted fraction of drug-susceptible Aspergillus fumigatus KU80 delta-akuB at 0.12 ug/ml after 48 hrs in YPD medium by MS (MS/MS) analysis relative to control
[12] = system: Aspergillus fumigatus; assay: Induction of change in neutral amino acid permease gene expression in drug-susceptible Aspergillus fumigatus KU80 delta-akuB at 0.12 ug/ml after 48 hrs in YPD medium by microarray analysis relative to control
[13] = system: Aspergillus fumigatus; assay: Induction of change in GPI anchored protein, putative gene expression in drug-susceptible Aspergillus fumigatus KU80 delta-akuB at 0.12 ug/ml after 48 hrs in YPD medium by microarray analysis relative to control
[14] = system: Aspergillus fumigatus; assay: Induction of change in 60S ribosomal protein L44 protein level in iTRAQ114 labelled cell wall fraction of drug-resistant Aspergillus fumigatus EMFR-S678P at 0.12 ug/ml after 24 hrs in YPD medium by MS (MS/MS) analysis relative to control
[15] = system: Aspergillus fumigatus; assay: Induction of change in Cytosolic large ribosomal subunit protein L7A protein level in iTRAQ114 labelled cell wall fraction of drug-resistant Aspergillus fumigatus EMFR-S678P at 0.12 ug/ml after 24 hrs in YPD medium by MS (MS/MS) analysis relative to control
[16] = system: Aspergillus fumigatus; assay: Induction of change in Translation elongation factor eEF-3, putative protein level in iTRAQ-116 labelled cell wall fraction of drug-resistant Aspergillus fumigatus EMFR-S678P at 0.12 ug/ml after 48 hrs in YPD medium by MS (MS/MS) analysis relative to control
[17] = system: Aspergillus fumigatus; assay: Induction of change in NAD-dependent formate dehydrogenase protein level in iTRAQ-116 labelled cell wall fraction of drug-susceptible Aspergillus fumigatus KU80 delta-akuB at 0.12 ug/ml after 48 hrs in YPD medium by MS (MS/MS) analysis relative to control
[18] = system: Aspergillus fumigatus; assay: Induction of change in extracellular cell wall glucanase Crf1/allergen Asp F9 protein level in iTRAQ-118 labelled cell wall fraction of drug-resistant Aspergillus fumigatus EMFR-S678P at 0.12 ug/ml after 24 hrs in YPD medium by MS (MS/MS) analysis relative to control
[19] = system: Aspergillus fumigatus; assay: Induction of change in Eukaryotic translation initiation factor eIF-5A protein level in iTRAQ-118 labelled cell wall fraction of drug-resistant Aspergillus fumigatus EMFR-S678P at 0.12 ug/ml after 24 hrs in YPD medium by MS (MS/MS) analysis relative to control
[20] = system: Aspergillus fumigatus; assay: Induction of change in isocitrate dehydrogenase Idp1, putative protein level in iTRAQ-116 labelled secreted fraction of drug-resistant Aspergillus fumigatus EMFR-S678P at 0.12 ug/ml after 48 hrs in YPD medium by MS (MS/MS) analysis relative to control
[21] = system: Aspergillus fumigatus; assay: Induction of change in Plasma membrane H-ATPase Pma1 protein level in iTRAQ114 labelled cell wall fraction of drug-susceptible Aspergillus fumigatus KU80 delta-akuB at 0.12 ug/ml after 24 hrs in YPD medium by MS (MS/MS) analysis relative to control
[22] = system: Aspergillus fumigatus; assay: Induction of change in 60S ribosomal protein L22, putative protein level in iTRAQ114 labelled cell wall fraction of drug-susceptible Aspergillus fumigatus KU80 delta-akuB at 0.12 ug/ml after 24 hrs in YPD medium by MS (MS/MS) analysis relative to control
[23] = system: Aspergillus fumigatus; assay: Induction of change in 40S ribosomal protein S9 protein level in iTRAQ114 labelled cell wall fraction of drug-susceptible Aspergillus fumigatus KU80 delta-akuB at 0.12 ug/ml after 24 hrs in YPD medium by MS (MS/MS) analysis relative to control
[24] = system: Aspergillus fumigatus; assay: Induction of change in SUN domain protein (Uth1), putative protein level in iTRAQ-118 labelled cell wall fraction of drug-susceptible Aspergillus fumigatus KU80 delta-akuB at 0.12 ug/ml after 24 hrs in YPD medium by MS (MS/MS) analysis relative to control
[25] = system: Aspergillus fumigatus; assay: Induction of change in tripeptidyl-peptidase (TppA), putative protein level in iTRAQ-118 labelled cell wall fraction of drug-susceptible Aspergillus fumigatus KU80 delta-akuB at 0.12 ug/ml after 24 hrs in YPD medium by MS (MS/MS) analysis relative to control

In the case of `CC[C@H](C)C[C@H](C)CCCCCCCCC(=O)N[C@H]1C[C@@H](O)[C@@H](NCCN)NC(=O)[C@@H]2[C@@H](O)CCN2C(=O)[C@H]([C@H](O)CCN)NC(=O)[C@H]([C@H](O)[C@@H](O)c2ccc(O)cc2)NC(=O)[C@@H]2C[C@@H](O)CN2C(=O)[C@H]([C@@H](C)O)NC1=O` [CASPOFUNGIN], the “fold change (FC)” value [1] is reported as -3.5, the “fold change (FC)” value [2] is reported as -2.6 and the “fold change (FC)” value [3] is reported as 3.9. The “fold change (FC)” value [4] was 4, the “fold change (FC)” value [5] was -2.6 and the “fold change (FC)” value [6] was -2.3. The “fold change (FC)” value [7] was 1.4, the “fold change (FC)” value [8] was 2.1 and the “fold change (FC)” value [9] was 2.6. For the same compound, the “fold change (FC)” value [10] was -4.6, the “fold change (FC)” value [11] was -1.6 and the “fold change (FC)” value [12] was -3.3. For the same compound, the “fold change (FC)” value [13] was -2.8, the “fold change (FC)” value [14] was 1.41 and the “fold change (FC)” value [15] was 1.07. The “fold change (FC)” value [16] was 1.07, the “fold change (FC)” value [17] was -1.3 and the “fold change (FC)” value [18] was -1.41. The “fold change (FC)” value [19] was -1.32, the “fold change (FC)” value [20] was -1.07 and the “fold change (FC)” value [21] was -4.3. For the same compound, the “fold change (FC)” value [22] was 2, the “fold change (FC)” value [23] was 2 and the “fold change (FC)” value [24] was -3. For the same compound, the “fold change (FC)” value [25] was -2.3.
